Values quoted from earlier work as cited in patent US20110039926A1 (priority 2008, published 2011).
Some entries share one result that the patent states for a list of compounds.

Test system: patients suffering from psychiatric disorders (among them MDD)
Details: several trials, patients with psychiatric disorders (among them MDD); cited from earlier work

CN(C)CCC[C@@]1(c2ccc(F)cc2)OCc2cc(C#N)ccc21 [escitalopram]
odds ratio (OR) versus placebo, suicidal behaviour and ideation: > 1
